These are yes or no findings as the source states them, for the method shown. For part of these data: A result given as binding can be weak or reduced; the word gives no strength. Sequences can lack the tags named with a protein.

This note sets out measurements from PMC8253596.

Test [1] deals with RDV P2N (aa 1-688 of the minor outer capsid protein P2), bait fusion from pGBKT7-P2N (Rice dwarf virus). In words: two-hybrid; Matchmaker Gold Yeast Two-hybrid system; prey in pGADT7, bait in pGBKT7, co-transformed into yeast AH109; growth and colour on SD/-Ade-His-Leu-Trp/X-alpha-Gal.
Test [2] has as its target RDV P2C (aa 689-1149 of the minor outer capsid protein P2), bait fusion from pGBKT7-P2C (Rice dwarf virus). The test is described as above.

B1: N. cincticeps Rab5, prey fusion from pGADT7-Rab5 (protein, UniProt A0A8F5HV83 1-214)
chain: MANRGGAQRPNGTPQGKICQFKLVLLGESAVGKSSLVLRFVKGQFHEYQESTIGAAFLTQTVCLDDMTVKFEIWDTAGQERYHSLAPMYYRGAQAAIVVYDITNPDTFGRAKTWVKELQRQASPNIVIALAGNKADLANKRSVEFDEAQAYAHENGLLFMETSAKTAMNVNDIFLAIAKKLPKNEQAGGGGSSGQGRRLVESEATTKAPGSCCK
Turning to B1, the values for the binding entry in test [1] and in test [2] were “binds” and “no binding”, respectively.

B2: N. cincticeps Rab27a, prey fusion from pGADT7-Rab27a (protein, UniProt A0A8F5HWN5 1-223)
chain: MSSEYDYLIKFLFLGDSGVGKTSFLIRYTDGSFVSKFVSTVGIDFRLKRVVYKTQGRSHIVNLQLWDTAGQERFRSITTAYYKDAMGFLLLFDLTNEQSFLEVRNWLELLKIHAYCEKPDVILCGNKADLVEKRVVPEERAKELAARYGLEYMETSAESGLNVNRAVDTLLDMVMCRMERGVDEAMTRYLGRPVDSVTVGSTARSRGEGSSTADASEQTGCRC
As to B2, the binding entry in test [1] is “no binding”.
